From paper PMC11222155
No constants are given. Whether binding was seen depends on the method and setting. Binding can be weak; no strength is given. Sequences can lack the tags named with a protein.

Target: T1, GasA (yeast two-hybrid fusion) (A. flagrans)
T1 sequence: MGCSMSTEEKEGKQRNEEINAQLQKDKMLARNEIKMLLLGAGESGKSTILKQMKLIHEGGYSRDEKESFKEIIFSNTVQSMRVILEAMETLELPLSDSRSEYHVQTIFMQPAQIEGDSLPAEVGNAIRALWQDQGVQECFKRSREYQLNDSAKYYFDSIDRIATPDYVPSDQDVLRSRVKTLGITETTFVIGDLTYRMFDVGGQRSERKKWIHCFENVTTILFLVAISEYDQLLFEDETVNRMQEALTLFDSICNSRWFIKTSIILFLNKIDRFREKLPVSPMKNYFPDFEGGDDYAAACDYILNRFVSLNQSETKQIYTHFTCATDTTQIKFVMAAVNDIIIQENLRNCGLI
Assay: two-hybrid; Matchmaker Gold system (Clontech); pGBKT7 and pGADT7; strains AH109 and Y187 mated; dilution series on SD-LW and SD-LWH agar plates for 3-5 days

## C-terminal tail (111 amino acids) of GprC (yeast two-hybrid fusion) (A. flagrans) (domain or fragment)
  binding: binds
